Results are given in words; binding and its absence hold for the method and conditions named. Binding seen in cells or lysates may run through a third protein. Some results given as binding are weak or reduced against the parent protein; the word gives no strength.

Chains of the proteins cited; added tags and fusions are not shown.
UniProt P11940: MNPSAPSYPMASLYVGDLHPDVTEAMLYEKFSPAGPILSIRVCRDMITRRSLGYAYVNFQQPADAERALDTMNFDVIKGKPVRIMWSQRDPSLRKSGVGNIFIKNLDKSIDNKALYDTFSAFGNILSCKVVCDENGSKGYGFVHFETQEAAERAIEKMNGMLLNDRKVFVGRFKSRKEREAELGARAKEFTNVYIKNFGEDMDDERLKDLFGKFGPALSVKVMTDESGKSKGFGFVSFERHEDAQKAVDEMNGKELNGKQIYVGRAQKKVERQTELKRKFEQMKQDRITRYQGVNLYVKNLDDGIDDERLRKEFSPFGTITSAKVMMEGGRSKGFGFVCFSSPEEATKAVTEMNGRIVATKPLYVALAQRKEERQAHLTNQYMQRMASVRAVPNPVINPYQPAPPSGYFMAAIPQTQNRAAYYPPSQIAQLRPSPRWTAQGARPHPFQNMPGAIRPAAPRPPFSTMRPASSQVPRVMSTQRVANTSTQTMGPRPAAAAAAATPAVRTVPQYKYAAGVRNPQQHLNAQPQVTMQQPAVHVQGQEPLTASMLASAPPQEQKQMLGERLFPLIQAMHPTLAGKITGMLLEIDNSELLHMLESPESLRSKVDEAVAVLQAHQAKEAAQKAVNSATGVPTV

In experiment [1] the target is T1, YTH m6A RNA-binding protein 1 (YTHDF1) (human (endogenous in NOZ)) (UniProt Q9BYJ9).
T1 sequence: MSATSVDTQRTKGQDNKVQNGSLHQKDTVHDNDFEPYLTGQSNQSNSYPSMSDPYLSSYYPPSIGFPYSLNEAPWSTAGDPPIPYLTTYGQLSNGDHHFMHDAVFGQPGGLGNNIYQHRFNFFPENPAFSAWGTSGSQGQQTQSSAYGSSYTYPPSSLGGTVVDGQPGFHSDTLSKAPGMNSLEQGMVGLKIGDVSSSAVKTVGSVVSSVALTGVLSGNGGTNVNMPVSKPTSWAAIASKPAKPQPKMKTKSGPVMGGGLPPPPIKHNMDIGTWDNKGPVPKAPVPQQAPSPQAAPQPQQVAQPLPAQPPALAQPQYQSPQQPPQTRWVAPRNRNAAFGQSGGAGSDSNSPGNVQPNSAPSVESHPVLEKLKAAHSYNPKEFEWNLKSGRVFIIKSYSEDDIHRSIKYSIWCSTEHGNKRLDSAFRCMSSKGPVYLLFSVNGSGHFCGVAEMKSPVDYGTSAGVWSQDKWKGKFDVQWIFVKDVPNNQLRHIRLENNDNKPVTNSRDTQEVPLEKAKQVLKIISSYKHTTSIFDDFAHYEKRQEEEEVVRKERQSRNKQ
Description: co-IP; reciprocal co-IP from NOZ cell lysate; anti-YTHDF1, anti-PABPC1 or IgG isotype control on Protein G Dynabeads; IP Lysis buffer (10 mM Tris-HCl, 150 mM NaCl, 0.5% Igepal CA-630), 4°C for 2 h, NT2 wash buffer; Western blotting of 10% Input, IgG and IP.

The target in experiment [2] is PABPC1 (human (endogenous in NOZ)) (UniProt P11940). Described as above.

Consider PABPC1 (from UniProt P11940 1-636), for which the binding entry in experiment [1] is “binds”.

B1: YTH m6A RNA-binding protein 1 (YTHDF1) (protein, UniProt Q9BYJ9 1-559)
chain: MSATSVDTQRTKGQDNKVQNGSLHQKDTVHDNDFEPYLTGQSNQSNSYPSMSDPYLSSYYPPSIGFPYSLNEAPWSTAGDPPIPYLTTYGQLSNGDHHFMHDAVFGQPGGLGNNIYQHRFNFFPENPAFSAWGTSGSQGQQTQSSAYGSSYTYPPSSLGGTVVDGQPGFHSDTLSKAPGMNSLEQGMVGLKIGDVSSSAVKTVGSVVSSVALTGVLSGNGGTNVNMPVSKPTSWAAIASKPAKPQPKMKTKSGPVMGGGLPPPPIKHNMDIGTWDNKGPVPKAPVPQQAPSPQAAPQPQQVAQPLPAQPPALAQPQYQSPQQPPQTRWVAPRNRNAAFGQSGGAGSDSNSPGNVQPNSAPSVESHPVLEKLKAAHSYNPKEFEWNLKSGRVFIIKSYSEDDIHRSIKYSIWCSTEHGNKRLDSAFRCMSSKGPVYLLFSVNGSGHFCGVAEMKSPVDYGTSAGVWSQDKWKGKFDVQWIFVKDVPNNQLRHIRLENNDNKPVTNSRDTQEVPLEKAKQVLKIISSYKHTTSIFDDFAHYEKRQEEEEVVRKERQSRNKQ
For B1, the binding entry in experiment [2] is reported as “binds”.

The record behind these values is article PMC11057417.
